This note sets out measurements from PMC5693993.

Results are given in words; binding and its absence hold for the method and conditions named. In cells and extracts the contact can be indirect. A yes stands for co-enrichment or nearness to the bait. Other partners may have been found. Tags and fused reporters may be left off the sequences shown.

The assay concerns the target T1, Flag-GFP tagged Unc93B1 (mouse) (UniProt Q8VCW4).
T1 sequence: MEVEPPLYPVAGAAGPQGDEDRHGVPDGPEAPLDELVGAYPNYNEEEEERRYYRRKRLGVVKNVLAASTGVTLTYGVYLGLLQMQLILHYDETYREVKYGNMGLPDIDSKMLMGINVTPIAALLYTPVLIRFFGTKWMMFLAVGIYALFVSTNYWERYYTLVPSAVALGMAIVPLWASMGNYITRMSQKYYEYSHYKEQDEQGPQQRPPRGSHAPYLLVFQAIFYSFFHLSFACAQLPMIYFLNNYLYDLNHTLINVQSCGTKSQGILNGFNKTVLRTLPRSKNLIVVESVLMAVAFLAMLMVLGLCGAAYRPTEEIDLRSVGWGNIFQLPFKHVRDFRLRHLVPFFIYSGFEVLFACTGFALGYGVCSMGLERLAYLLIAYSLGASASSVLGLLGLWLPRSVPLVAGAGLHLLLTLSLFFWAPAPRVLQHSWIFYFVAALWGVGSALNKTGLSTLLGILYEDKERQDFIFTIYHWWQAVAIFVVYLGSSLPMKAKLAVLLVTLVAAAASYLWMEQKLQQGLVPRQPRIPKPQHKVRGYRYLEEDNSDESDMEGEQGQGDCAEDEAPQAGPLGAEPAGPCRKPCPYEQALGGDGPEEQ
As to the kind of experiment: affinity purification with mass spectrometry; Flag-GFP tagged Unc93B1 expressed in BM-cDCs, 1% digitonin lysate, anti-Flag M2 agarose, Flag peptide elution, LC-MS/MS, SAINT analysis; Flag-GFP as negative control.

B1: Arl8a (protein, UniProt Q8VEH3 1-186)
chain: MIALFNKLLDWFKALFWKEEMELTLVGLQYSGKTTFVNVIASGQFNEDMIPTVGFNMRKITKGNVTIKLWDIGGQPRFRSMWERYCRGVSAIVYMVDAADQEKIEASKNELHNLLDKPQLQGIPVLVLGNKRDLAGALDEKELIEKMNLSAIQDREICCYSISCKEKDNIDITLQWLIQHSKSRRS
In the case of B1, the binding entry is on record as “binds”.

B2: Arl8b (protein, UniProt Q9CQW2 1-186)
chain: MLALISRLLDWFRSLFWKEEMELTLVGLQYSGKTTFVNVIASGQFSEDMIPTVGFNMRKVTKGNVTIKIWDIGGQPRFRSMWERYCRGVNAIVYMIDAADREKIEASRNELHNLLDKPQLQGIPVLVLGNKRDLPNALDEKQLIEKMNLSAIQDREICCYSISCKEKDNIDITLQWLIQHSKSRRS
As to B2, the binding entry is listed as “binds”.
